Assay: ^225Ac radiolabeling of macropa and DOTA (radio-TLC)
Type: physicochemical
Details: 5 min; for ^225Ac radiolabeling: ligand 0.59 μM, RT; for ^225Ac complexed: ligand 59 μM, ^225Ac 26 kBq, 0.15 M NH4OAc pH 5.5-6, RT

SMILES | ^225Ac radiolabeling | ^225Ac complexed
O=C(O)CN1CCN(CC(=O)O)CCN(CC(=O)O)CCN(CC(=O)O)CC1 [DOTA, 1,4,7,10-tetraazacyclododecane-1,4,7,10-tetraacetic acid, reference compound] | failed to form a complex | 10%
O=C(O)c1cccc(CN2CCOCCOCCN(Cc3cccc(C(=O)O)n3)CCOCCOCC2)n1 [macropa, N,N′-bis[(6-carboxy-2-pyridil)methyl]-4,13-diaza-18-crown-6] | complete | complexed all the ^225Ac
